These results are taken from PMC11589678.

Chains of the proteins cited; added tags and fusions are not shown. Lines headed by an entry give the natural chain unless they say otherwise; changes in a name come on top. Residues count along the entry.
UniProt P0DF96, residues 34-571: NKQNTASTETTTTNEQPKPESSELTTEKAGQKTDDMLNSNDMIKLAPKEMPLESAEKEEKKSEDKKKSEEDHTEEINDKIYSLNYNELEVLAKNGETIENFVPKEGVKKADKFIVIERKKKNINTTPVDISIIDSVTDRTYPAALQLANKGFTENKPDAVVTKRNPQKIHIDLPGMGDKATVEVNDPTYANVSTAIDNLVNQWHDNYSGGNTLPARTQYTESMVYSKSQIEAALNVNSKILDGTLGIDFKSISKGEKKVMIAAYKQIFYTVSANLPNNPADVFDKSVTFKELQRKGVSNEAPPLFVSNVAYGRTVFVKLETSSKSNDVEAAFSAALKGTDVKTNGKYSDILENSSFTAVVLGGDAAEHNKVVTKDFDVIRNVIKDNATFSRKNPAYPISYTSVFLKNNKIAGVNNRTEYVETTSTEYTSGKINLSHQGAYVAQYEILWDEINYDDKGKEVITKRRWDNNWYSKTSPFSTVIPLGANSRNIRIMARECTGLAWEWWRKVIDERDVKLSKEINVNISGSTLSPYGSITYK
UniProt P02649, residues 19-317: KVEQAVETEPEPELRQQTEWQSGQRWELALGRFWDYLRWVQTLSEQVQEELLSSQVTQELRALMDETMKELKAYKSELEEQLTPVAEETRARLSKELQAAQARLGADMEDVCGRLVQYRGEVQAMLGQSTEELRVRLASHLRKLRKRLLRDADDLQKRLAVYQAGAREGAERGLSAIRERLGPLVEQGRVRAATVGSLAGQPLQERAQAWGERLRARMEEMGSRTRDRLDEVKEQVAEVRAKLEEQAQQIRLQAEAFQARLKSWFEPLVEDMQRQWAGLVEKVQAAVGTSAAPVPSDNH
UniProt P10909: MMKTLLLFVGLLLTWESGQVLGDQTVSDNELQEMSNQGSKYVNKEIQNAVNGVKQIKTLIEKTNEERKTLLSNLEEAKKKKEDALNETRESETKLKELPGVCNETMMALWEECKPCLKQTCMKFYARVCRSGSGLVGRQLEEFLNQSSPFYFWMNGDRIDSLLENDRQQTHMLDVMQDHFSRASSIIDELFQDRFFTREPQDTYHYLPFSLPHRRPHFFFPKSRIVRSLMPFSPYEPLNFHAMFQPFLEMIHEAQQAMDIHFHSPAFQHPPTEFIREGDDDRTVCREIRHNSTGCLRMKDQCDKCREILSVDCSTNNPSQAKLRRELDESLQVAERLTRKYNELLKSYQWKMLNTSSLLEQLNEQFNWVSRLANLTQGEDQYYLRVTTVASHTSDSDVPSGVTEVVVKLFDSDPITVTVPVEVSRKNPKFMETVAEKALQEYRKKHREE

The labels stand for the following.
B1: plasma protease C1 inhibitor (protein, UniProt P05155 23-500)
chain: NPNATSSSSQDPESLQDRGEGKVATTVISKMLFVEPILEVSSLPTTNSTTNSATKITANTTDEPTTQPTTEPTTQPTIQPTQPTTQLPTDSPTQPTTGSFCPGPVTLCSDLESHSTEAVLGDALVDFSLKLYHAFSAMKKVETNMAFSPFSIASLLTQVLLGAGENTKTNLESILSYPKDFTCVHQALKGFTTKGVTSVSQIFHSPDLAIRDTFVNASRTLYSSSPRVLSNNSDANLELINTWVAKNTNNKISRLLDSLPSDTRLVLLNAIYLSAKWKTTFDPKKTRMEPFHFKNSVIKVPMMNSKKYPVAHFIDQTLKAKVGQLQLSHNLSLVILVPQNLKHRLEDMEQALSPSVFKAIMEKLEMSKFQPTLLTLPRIKVTTSQDMLSIMEKLEFFDFSYDLNLCGLTEDPDLQVSAMQHQTVLELTETGVEAAAASAISVARTLLVFEVQQPFLFVLWDQQHKFPVFMGRVYDPRA

No constants are given. Whether binding was seen depends on the method and setting. In cells and extracts the contact can be indirect. These calls come from enrichment with a bait or labelling near it, and not all partners need be listed.

For the assay, the target named is streptolysin O (Streptococcus pyogenes (group A Streptococcus)) (UniProt P0DF96). As to the kind of experiment: affinity purification with mass spectrometry; 40 ug tagged bait immobilised on Strep-Tactin Sepharose; incubated with undiluted, 50% or 10% pooled human plasma (in PBS) at 37 °C, 500 rpm, 2 h; washed with ice-cold PBS, eluted with 5 mM biotin; tagged GFP and SCPA as reference baits; LC-MS/MS (DDA and DIA), MiST score and t-tests; only the target purified.
In the case of “apolipoprotein E (from UniProt P02649 19-317)”, the binding result was “binds”. With “clusterin (from UniProt P10909 23-227; P10909 228-449)” the entry was “binds”; with B1, “binds”.
